Measurements from the supplement of paper PMC12067093, “Discovery and optimisation of a covalent ligand for TRIM25 and its application to targeted protein ubiquitination” (Chemical Science, 2025).
The list shows a part of the results.

By UniProt entry, the sequences of proteins in these tests, tags left out. Where a name states a change or a piece, a line headed by the entry shows the natural chain unless it says otherwise.
UniProt P35240: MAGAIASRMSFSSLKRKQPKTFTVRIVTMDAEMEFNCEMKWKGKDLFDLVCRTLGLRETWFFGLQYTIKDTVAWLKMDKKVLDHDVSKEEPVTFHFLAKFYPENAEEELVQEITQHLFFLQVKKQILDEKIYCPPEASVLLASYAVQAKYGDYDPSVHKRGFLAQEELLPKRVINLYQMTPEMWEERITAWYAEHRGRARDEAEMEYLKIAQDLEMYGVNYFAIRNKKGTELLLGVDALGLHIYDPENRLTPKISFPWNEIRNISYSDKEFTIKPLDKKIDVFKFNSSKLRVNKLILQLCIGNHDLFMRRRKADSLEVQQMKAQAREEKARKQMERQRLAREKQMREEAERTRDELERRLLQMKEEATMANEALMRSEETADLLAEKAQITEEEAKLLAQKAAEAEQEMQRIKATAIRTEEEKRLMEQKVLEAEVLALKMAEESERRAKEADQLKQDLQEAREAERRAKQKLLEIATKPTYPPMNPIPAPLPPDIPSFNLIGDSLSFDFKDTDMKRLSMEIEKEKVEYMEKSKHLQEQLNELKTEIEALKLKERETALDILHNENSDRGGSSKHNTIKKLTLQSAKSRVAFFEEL
UniProt Q9NX24: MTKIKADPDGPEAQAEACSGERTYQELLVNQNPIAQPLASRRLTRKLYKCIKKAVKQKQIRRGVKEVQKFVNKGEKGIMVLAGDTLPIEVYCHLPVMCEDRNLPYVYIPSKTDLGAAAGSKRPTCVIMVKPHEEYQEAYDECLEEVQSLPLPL
UniProt Q12986: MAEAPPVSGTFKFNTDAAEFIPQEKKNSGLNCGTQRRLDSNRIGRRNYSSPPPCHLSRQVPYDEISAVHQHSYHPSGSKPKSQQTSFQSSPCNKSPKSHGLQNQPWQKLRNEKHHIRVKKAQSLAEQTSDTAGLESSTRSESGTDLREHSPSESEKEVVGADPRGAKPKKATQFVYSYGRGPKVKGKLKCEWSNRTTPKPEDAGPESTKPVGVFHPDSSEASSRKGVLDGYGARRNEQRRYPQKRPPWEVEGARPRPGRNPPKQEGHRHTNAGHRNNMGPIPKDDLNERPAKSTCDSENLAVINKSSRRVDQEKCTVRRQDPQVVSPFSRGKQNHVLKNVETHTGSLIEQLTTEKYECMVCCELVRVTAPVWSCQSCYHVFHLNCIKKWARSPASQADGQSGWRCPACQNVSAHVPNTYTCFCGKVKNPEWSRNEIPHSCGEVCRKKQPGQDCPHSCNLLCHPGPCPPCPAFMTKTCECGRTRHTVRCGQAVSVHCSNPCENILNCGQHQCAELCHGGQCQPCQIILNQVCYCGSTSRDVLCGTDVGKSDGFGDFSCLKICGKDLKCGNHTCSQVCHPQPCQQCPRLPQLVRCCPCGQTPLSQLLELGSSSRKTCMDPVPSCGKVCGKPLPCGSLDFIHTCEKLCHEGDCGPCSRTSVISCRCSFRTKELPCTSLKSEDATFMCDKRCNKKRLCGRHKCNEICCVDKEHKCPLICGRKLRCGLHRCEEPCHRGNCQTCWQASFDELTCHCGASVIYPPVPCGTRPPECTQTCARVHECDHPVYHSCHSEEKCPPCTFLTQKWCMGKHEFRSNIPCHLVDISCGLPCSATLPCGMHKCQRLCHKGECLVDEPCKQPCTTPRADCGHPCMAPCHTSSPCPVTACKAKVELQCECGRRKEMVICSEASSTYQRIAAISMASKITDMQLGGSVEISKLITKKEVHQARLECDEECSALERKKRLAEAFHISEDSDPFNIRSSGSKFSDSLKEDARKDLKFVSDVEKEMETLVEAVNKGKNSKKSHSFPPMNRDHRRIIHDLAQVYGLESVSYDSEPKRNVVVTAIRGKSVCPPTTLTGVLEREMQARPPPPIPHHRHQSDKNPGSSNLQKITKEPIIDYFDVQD
UniProt O60524: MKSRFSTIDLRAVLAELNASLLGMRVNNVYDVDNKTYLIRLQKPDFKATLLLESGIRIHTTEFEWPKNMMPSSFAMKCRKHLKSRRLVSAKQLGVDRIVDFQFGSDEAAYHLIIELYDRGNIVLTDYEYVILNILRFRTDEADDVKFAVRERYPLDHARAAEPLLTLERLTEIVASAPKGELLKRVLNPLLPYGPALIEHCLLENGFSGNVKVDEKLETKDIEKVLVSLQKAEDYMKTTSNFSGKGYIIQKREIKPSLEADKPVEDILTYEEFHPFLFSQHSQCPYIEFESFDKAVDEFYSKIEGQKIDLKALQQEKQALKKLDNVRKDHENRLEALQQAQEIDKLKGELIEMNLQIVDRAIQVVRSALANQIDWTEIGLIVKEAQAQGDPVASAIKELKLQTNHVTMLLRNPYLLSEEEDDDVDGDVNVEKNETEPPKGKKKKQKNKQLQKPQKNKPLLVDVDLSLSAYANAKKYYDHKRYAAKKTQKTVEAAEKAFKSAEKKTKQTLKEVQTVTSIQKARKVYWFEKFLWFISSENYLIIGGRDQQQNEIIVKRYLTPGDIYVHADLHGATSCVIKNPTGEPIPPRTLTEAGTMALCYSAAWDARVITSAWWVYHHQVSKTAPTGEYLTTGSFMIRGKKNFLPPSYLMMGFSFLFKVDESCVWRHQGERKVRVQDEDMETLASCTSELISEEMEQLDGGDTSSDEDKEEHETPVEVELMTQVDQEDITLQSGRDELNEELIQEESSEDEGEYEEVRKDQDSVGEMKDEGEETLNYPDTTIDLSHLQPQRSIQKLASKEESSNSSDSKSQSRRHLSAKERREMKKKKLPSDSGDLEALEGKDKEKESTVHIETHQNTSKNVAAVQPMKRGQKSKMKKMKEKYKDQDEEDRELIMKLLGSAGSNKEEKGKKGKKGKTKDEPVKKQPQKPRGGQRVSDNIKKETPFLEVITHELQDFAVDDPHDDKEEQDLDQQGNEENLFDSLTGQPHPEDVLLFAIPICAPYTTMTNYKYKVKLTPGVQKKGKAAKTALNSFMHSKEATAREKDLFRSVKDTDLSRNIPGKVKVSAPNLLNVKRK
UniProt Q6PIU2: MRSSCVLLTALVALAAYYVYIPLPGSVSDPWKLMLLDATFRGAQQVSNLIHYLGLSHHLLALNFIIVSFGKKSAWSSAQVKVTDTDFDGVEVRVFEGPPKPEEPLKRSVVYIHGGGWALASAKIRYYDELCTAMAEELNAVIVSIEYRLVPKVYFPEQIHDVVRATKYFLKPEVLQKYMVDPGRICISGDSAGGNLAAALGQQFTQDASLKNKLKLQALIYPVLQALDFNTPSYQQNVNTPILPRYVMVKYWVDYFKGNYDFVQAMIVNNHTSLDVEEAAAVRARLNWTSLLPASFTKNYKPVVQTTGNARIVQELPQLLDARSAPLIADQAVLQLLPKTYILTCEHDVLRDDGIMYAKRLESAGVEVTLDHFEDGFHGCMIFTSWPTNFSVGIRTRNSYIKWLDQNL
UniProt O00221: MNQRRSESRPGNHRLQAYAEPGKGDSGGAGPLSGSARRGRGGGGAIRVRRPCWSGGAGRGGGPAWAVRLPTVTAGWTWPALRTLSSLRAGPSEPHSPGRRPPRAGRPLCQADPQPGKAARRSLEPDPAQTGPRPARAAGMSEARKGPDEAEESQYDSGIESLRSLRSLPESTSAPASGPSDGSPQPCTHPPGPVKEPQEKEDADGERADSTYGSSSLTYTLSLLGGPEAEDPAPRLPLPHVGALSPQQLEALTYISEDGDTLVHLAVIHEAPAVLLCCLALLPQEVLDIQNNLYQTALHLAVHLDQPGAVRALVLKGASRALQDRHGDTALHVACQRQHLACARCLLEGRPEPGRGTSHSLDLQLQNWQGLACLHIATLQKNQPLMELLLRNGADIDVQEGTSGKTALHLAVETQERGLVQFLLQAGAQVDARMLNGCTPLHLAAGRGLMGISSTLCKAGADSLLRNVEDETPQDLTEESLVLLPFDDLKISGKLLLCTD
UniProt P19878: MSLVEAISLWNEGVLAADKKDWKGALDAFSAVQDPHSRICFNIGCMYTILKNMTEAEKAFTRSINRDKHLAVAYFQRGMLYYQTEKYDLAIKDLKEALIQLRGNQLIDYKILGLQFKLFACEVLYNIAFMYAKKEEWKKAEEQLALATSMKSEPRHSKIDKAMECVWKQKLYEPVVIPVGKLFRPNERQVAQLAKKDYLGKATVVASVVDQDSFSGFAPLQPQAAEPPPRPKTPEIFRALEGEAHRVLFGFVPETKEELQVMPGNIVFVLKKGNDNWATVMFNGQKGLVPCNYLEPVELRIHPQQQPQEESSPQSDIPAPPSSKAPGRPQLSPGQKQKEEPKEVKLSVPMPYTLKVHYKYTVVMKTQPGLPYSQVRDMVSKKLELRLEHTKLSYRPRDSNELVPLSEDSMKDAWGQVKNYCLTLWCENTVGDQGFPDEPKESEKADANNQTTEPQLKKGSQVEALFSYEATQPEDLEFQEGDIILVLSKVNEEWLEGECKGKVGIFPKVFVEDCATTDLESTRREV
UniProt Q96IV0: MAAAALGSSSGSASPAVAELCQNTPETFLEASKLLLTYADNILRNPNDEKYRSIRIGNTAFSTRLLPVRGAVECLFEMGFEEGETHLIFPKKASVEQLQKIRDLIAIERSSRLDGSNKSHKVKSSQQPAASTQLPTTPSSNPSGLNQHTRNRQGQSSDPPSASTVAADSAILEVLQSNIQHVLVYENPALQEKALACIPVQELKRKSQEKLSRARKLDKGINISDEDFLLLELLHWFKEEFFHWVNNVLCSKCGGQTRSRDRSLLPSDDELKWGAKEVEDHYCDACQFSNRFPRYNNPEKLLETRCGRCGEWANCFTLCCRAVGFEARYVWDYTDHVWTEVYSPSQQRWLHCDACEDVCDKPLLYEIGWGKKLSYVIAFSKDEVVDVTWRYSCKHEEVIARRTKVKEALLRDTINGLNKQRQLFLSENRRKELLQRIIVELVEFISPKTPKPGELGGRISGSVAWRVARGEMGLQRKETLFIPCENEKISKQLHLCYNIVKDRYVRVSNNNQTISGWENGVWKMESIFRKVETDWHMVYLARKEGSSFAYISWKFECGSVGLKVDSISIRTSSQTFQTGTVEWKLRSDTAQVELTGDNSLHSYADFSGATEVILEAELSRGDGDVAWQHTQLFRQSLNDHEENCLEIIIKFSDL
UniProt P55160: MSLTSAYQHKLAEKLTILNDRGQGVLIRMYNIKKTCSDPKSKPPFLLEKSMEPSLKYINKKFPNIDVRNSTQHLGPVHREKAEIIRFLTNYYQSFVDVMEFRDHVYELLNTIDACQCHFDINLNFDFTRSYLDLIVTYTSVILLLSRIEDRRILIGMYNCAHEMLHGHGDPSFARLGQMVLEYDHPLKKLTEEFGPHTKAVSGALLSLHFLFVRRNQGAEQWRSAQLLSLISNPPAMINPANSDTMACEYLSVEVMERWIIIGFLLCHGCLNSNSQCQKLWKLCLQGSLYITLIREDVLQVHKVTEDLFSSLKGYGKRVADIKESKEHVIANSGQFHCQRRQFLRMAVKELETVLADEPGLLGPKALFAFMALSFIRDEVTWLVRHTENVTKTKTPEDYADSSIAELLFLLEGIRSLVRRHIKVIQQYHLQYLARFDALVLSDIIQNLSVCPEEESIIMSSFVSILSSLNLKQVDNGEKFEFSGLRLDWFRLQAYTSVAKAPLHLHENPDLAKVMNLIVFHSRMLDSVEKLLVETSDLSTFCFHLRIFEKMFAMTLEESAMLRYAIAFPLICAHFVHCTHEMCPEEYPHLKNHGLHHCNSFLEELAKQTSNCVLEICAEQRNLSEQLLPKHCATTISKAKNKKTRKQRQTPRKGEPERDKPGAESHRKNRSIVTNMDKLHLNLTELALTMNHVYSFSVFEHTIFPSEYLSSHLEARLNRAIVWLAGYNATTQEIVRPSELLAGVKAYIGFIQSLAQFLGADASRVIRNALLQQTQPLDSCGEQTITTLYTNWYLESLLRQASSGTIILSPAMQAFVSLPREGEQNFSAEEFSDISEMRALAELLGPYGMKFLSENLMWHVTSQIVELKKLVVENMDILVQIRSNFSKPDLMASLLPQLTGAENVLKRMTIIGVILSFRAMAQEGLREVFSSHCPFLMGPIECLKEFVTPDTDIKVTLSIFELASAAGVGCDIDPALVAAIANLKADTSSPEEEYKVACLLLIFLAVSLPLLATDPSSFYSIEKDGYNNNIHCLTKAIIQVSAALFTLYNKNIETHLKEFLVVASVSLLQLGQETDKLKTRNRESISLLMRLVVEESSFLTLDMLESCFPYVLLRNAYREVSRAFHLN
UniProt O95182, whole entry: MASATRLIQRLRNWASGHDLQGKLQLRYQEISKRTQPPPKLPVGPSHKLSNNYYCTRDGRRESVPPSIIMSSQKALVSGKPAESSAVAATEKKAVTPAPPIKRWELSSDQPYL
UniProt O43678, whole entry, looked up: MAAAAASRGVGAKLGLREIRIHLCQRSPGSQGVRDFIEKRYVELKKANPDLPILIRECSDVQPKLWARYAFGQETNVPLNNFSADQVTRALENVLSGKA

Compound: CC1Cc2ccccc2N1C(=O)C1CCCN(C1)C(=O)CCl (mixture of isomers) [TRIM25 ligand 11 (diastereomer mixture)]
Assay: probe-labelled cysteine peptide fold change vs DMSO (competition) (log2 fold change); higher = less target engagement (more negative = stronger competition)
Conditions: THP-1, incubation time: 4 h
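Further: competitive chemoproteomic profiling in live THP-1 cells with an iodoacetamide desthiobiotin (IA-DTB) probe, comparing probe-labelled peptide intensities in compound-treated cells against DMSO-treated controls.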

Target	probe-labelled cysteine peptide fold change (10 µM)	probe-labelled cysteine peptide fold change (50 µM)
NECTIN2_Q92692_283_TDATLSCDVR (UniProt Q92692)	-0.0251	0.281
NF2_P35240_133_IYCPPEASVLLASYAVQAK (UniProt P35240)	0.127	-0.109
NHP2_Q9NX24_18_IKADPDGPEAQAEACSGER (UniProt Q9NX24)	-0.0829	-0.247
NHEJ1_Q9H9Q4_97_DAAHPSEATFSCDCVADALILR (UniProt Q9H9Q4)	-0.0671	-0.126
NFX1_Q12986_572_CGNHTCSQVCHPQPCQQCPR (UniProt Q12986)	-0.0882	0.169
NEMF_O60524_575_YLTPGDIYVHADLHGATSCVIK (UniProt O60524)	0.0554	0.13
NDUFB10_O96000_119_EGQNYQQNCIK (UniProt O96000)	-0.0835	-0.0614
NDUFV1_P49821_238_LKPPFPADVGVFGCPTTVANVETVAVSPTICR (UniProt P49821)	-0.0718	-0.105
NCOR1_O75376_1274_ESPVSAPLEGLICR (UniProt O75376)	-0.0861	-0.136
NELFCD_Q8IXH7_461_YFQLQTDHTPVHLALLDEISTCHQLLHPQVLQLLVK (UniProt Q8IXH7)	0.237	0.148
NCEH1_Q6PIU2_345_TYILTCEHDVLR (UniProt Q6PIU2)	0.154	0.0919
NFKBIE_O00221_342_QHLACAR (UniProt O00221)	-0.0336	0.104
NCKIPSD_Q9NZQ3_429_CYLEELLHILTDADPEVCKK (UniProt Q9NZQ3)	-0.131	-0.0929
NEK9_Q8TD19_556_VLACGLNEFNK (UniProt Q8TD19)	0.127	0.169
NFATC3_Q12968_358_LELCSDDQGSLSPAR (UniProt Q12968)	0.32	-0.333
NFKBIE_O00221_457_GLMGISSTLCK (UniProt O00221)	-0.147	0.021
NF1_P21359_434_IDAVYCHSVELR (UniProt P21359)	-0.102	-0.0177
NDUFS1_P28331_564_DCFIIYQGHHGDVGAPIADVILPGAAYTEK (UniProt P28331)	-0.092	0.0629
NFIC_P08651_163_AAQCGHPVLCVQPHHIGVAVK (UniProt P08651)	0.0061	0.0366

Target	probe-labelled cysteine peptide fold change (10 µM)	probe-labelled cysteine peptide fold change (50 µM)
NHP2_Q9NX24_92_GIMVLAGDTLPIEVYCHLPVMCEDR (UniProt Q9NX24)	-0.387	-0.298
NCOA7_Q8NI08_618_EALDSSLESTLDNSCQGAQMDNK (UniProt Q8NI08)	0.34	-0.00884
NFKBIE_O00221_335_HGDTALHVACQR (UniProt O00221)	0.0384	0.0799
NCF2_P19878_291_GLVPCNYLEPVELR (UniProt P19878)	-0.17	-0.137
NIPBL_Q6KC79_2374_MSYQVQQAINTCLKDPVR (UniProt Q6KC79)	-0.203	-0.443
NISCH_Q9Y2I1_436_ASEVCLDDTVTTEK (UniProt Q9Y2I1)	-0.0835	-0.0789
NDUFA10_O95299_112_HFPEAGIHYPDSTTGDGKPLATDYNGNCSLEK (UniProt O95299)	-0.0444	-0.124
NGLY1_Q96IV0_283+286_EVEDHYCDACQFSNRFPR (UniProt Q96IV0)	-0.0665	-0.135
NFX1_Q12986_423_CPACQNVSAHVPNTYTCFCGK (UniProt Q12986)	0.243	0.36
NEK4_P51957-2_463_DQDQVAGECIIEK (UniProt P51957)	-0.0844	-0.354
NECAP2_Q9NVZ3_11_MEESGYESVLCVKPDVHVYR (UniProt Q9NVZ3)	-0.174	-0.048
NCKAP1L_P55160_1032_DGYNNNIHCLTK (UniProt P55160)	0.176	0.375
NDUFA7_O95182_55_LSNNYYCTR (UniProt O95182)	-0.087	0.0253
NEU1_Q99519_218_LIVCGHGTLER (UniProt Q99519)	-0.0476	-0.0493
NDUFS1_P28331_64_FCYHER (UniProt P28331)	0.00835	0.0755
NCKAP1L_P55160_598_NHGLHHCNSFLEELAK (UniProt P55160)	-0.0547	-0.0916
NFS1_Q9Y697_308_SGTVPTPLVVGLGAACEVAQQEMEYDHKR (UniProt Q9Y697)	-0.0111	-0.089
NEURL4_Q96JN8_527_LLFHPNCGQK (UniProt Q96JN8)	-0.0963	-0.0727
NDUFA2_O43678_24_IHLCQR (UniProt O43678)	-0.147	-0.162

Reformatted: results already given.
Target | probe-labelled cysteine peptide fold change (10 µM) | probe-labelled cysteine peptide fold change (50 µM)
NELFCD_Q8IXH7_461_YFQLQTDHTPVHLALLDEISTCHQLLHPQVLQLLVK (UniProt Q8IXH7) | 0.237 | 0.148
NCEH1_Q6PIU2_345_TYILTCEHDVLR (UniProt Q6PIU2) | 0.154 | 0.0919
NDUFA7_O95182_55_LSNNYYCTR (UniProt O95182) | -0.087 | 0.0253
